{
  "sequences": {"note": "Chains of the proteins cited; added tags and fusions are not shown. Residues count along the entry.", "UniProt P05556, 21-798 limits assumed": "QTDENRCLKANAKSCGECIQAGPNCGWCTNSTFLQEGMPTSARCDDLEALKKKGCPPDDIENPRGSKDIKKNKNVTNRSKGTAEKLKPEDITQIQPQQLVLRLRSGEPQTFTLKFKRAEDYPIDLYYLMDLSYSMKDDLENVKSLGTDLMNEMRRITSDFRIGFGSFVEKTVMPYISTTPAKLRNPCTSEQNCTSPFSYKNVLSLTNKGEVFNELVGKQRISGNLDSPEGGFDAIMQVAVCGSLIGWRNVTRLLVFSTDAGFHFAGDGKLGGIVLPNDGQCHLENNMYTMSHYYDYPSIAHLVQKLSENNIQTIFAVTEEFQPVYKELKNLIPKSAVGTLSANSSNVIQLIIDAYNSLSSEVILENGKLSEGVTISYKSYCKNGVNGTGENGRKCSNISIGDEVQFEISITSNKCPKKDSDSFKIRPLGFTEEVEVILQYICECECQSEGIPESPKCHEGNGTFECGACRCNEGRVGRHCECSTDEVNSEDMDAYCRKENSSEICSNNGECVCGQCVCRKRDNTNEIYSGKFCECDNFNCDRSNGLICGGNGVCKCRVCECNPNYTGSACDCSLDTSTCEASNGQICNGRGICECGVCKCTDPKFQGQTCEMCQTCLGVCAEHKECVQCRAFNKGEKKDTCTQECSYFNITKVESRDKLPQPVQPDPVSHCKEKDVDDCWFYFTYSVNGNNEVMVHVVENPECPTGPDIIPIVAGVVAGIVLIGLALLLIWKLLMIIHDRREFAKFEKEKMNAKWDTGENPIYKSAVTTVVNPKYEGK", "UniProt P13612, 34-1032 limits assumed": "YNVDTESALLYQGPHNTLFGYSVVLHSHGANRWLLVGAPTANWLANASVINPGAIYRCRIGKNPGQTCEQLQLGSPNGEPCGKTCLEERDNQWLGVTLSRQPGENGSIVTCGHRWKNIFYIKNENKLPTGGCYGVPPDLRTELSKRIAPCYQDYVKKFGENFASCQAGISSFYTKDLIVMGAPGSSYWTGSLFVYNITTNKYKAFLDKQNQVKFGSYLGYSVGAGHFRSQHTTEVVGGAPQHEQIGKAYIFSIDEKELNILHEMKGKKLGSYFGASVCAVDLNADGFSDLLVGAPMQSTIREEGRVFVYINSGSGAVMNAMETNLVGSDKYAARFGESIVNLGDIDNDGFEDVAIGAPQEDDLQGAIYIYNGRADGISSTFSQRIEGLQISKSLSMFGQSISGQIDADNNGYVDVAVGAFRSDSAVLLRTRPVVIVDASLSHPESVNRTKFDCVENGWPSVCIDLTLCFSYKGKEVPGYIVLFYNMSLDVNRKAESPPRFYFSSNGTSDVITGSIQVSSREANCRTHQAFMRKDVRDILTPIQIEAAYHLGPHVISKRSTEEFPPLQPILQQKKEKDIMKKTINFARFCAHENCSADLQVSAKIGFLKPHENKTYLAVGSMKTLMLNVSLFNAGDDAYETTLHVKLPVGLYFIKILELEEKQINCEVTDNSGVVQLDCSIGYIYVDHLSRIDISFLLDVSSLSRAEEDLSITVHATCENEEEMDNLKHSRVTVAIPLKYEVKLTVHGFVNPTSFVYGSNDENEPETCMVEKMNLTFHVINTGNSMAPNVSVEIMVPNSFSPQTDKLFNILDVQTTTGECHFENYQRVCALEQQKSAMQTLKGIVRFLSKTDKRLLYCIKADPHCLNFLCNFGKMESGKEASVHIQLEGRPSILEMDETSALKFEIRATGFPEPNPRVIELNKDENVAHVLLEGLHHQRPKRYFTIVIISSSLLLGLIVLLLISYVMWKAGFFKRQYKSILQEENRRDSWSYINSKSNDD"},
  "source": "patent US6482849B1",
  "about": "“Inhibitors of α4β1 mediated cell adhesion” (Tanabe Seiyaku Co., Ltd., priority 1997, dated 2002)",
  "key": {"[1]": {"biological_target": "α4β1 integrin (Jurkat T-cell adhesion to IL-1 stimulated endothelial cell monolayers) (Homo sapiens, UniProt P05556+P13612)", "assay": "Jurkat-Endothelial Cell Adhesion Assay (Jurkat EC)", "settings": "read-out: IC50 Jurkat EC; Jurkat cells on IL-1 stimulated HUVEC monolayers", "procedure": "The following assay established the activity of the present compounds in inhibiting β1-mediated cell adhesion in a representative in vitro system. This assay measures the adhesive interactions of a T-cell line, Jurkat, known to express the α4β1 integrin, to endothelial monolayers in the presence of test compounds. The test compounds were added in increasing concentrations to T-cells and then the T-cell compound mixture was added to IL-1 stimulated endothelial cell monolayers. The plates were incubated, washed and the percentage of attached cells was quantitated. […] Human umbilical vein endothelial cells were purchased from Clonetics (San Diego, Calif.) at passage number 2. […]\nConfluent endothelial monolayers, grown in 96-well tissue culture plates, were stimulated for 4 hr. at 37° C. with 0.1 ng/ml (˜50 U/ml) recombinant IL-1 (Amgen, Thousand Oaks, Calif.). […] Following this incubation, the monolayers were washed twice with PBS containing 1 mM calcium chloride and 1 mM magnesium chloride and the plates were read using a Millipore Cytofluor 2300 (Marlboro, Mass.). Fluorescence in each well was measured as Arbitrary Fluorescence Units and percent adhesion in the absence of compound was adjusted to 100% and the % adhesion in the presence of compound was calculated. Monolayers were also fixed in 3% paraformaldehyde and evaluated microscopically to verify the adhesion. […]"}, "[2]": {"biological_target": "α4β1 integrin (Jurkat cell adhesion to immobilized CS-1 derived peptide CLHPGEILDVPST) (Homo sapiens, UniProt P05556+P13612)", "assay": "Jurkat-CS-1 Assay", "settings": "read-out: IC50 Jurkat CS-1; Jurkat cells on CS-1 peptide coated plates", "procedure": "The CS-1 derived peptide, CLHPGEILDVPST, and the scrambled control peptide, CLHGPIELVSDPT, were synthesized on a Beckman 990 synthesizer using t-Boc methodology. The peptides were immobilized onto microtiter plates using the heterobifunctional crosslinker 3-(2-pyridyldithio)propionic acid N-hydroxysuccinimide ester (SPDP) as reported by Pierschbacher et al., Proc. Natl. Acad. USA, 80:1224-1227 (1983). Microtiter plates were coated with 20 μg/ml HSA for 2 hr. at room temperature, washed once with PBS and derivatized with 10 μg/ml SPDP for 1 hr. After washing, 100 μl of a 100 μg/ml cysteine containing peptide solution which had been recently dissolved was added to the wells and allowed to crosslink to the plates overnight at 4° C. Unbound peptide was removed from plates by washing with PBS. To block non-reacted sites, the plates are coated with 100 μl of a 2.5 mg/ml BSA solution in PBS for 1 hr. at 37° C. […]\nFollowing this incubation the plates were washed once with PBS and the attached cells were fixed with 3% paraformaldehyde in PBS and stained with 0.5% toluidine blue in 3.7% formaldehyde. The cells were stained overnight at room temperature and the optical density at 590 nm of toluidine blue stained cells was determined using a vertical pathway spectrophotometer to quantitate attachment (VMAX Kinetic Microplate Reader, Molecular Devices, Menlo Park, Calif.). […]"}},
  "note": "Structures were worked out from names or drawings and are uncertain.",
  "data": [
    {"smiles": "CC1(C)[C@@H](C(=O)N[C@@H](Cc2ccc(NS(=O)(=O)c3c(Cl)cccc3Cl)cc2)C(=O)O)CC[C@@]1(C)C(=O)O", "values": [
      {"measurement": "IC50", "setting": "[1]", "result": "< 800", "unit": "nM"},
      {"measurement": "IC50", "setting": "[2]", "result": "80 to 500", "unit": "nM"}
    ]},
    {"smiles": "CC1(C)[C@@H](C(=O)N[C@@H](Cc2ccc(OCc3ccc(Cl)c(Cl)c3)cc2)C(=O)O)CC[C@@]1(C)C(=O)O", "values": [
      {"measurement": "IC50", "setting": "[1]", "result": "5000 to 10000", "unit": "nM"}
    ]}
  ]
}
